Measurements taken from PubChem BioAssay AID1487 (National Center for Advancing Translational Sciences (NCATS), 2009).
Some of the results follow. Further columns of the screen follow, without active or inactive calls. Most of these compounds were active or inconclusive in the main read-out, so they are no random draw. The note in brackets gives the kind of curve behind each potency; many fits are weak.

Assay: qHTS Assay for Modulators of Lamin A Splicing
Conditions: HeLa LMNA splicing GFP/RFP minigene ratio, 48 h
Summary of the method: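 S3 HeLa cells stably expressing lamin A-EGFP splicing minigene plus DsRed2, 600 cells/well, 48 h compound exposure at 37C. Laser-scanning cytometry; analysed as GFP (500-530 nm)/RFP (575-640 nm) total intensity ratio; 0.5% DMSO vehicle.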

[1] = measured here: RFP viability control channel
[2] = measured here: GFP splicing reporter channel

| SMILES | AC50 [1] | AC50 [2] |
| --- | --- | --- |
| CCN(CC)C(=O)Cn1c(=O)nc(-c2ccccc2F)c2cc(Cl)ccc21 | 5.62 µM [rising, single point] |  |
| Cc1ccc(Nc2c(N)c(=O)oc3ccccc23)cc1 | 14.1 µM [rising, partial curve] |  |
| Cc1cc(F)ccc1S(=O)(=O)Nc1ccc2c(c1)CCCN2C(=O)c1cccs1 |  | 12.6 µM [falling, partial curve, poor fit] |
| COc1cccc(C2CC(c3cccs3)=NN2C(=O)CSc2nc3ccccc3s2)c1OC (stereo not drawn) | 11.2 µM [rising, single point] |  |
| O=C(CSc1nnc(-c2ccccc2)n1Cc1ccccc1)N1CCCC1 | 0.794 µM [falling, partial curve, poor fit] |  |
| O=C(COc1ccc(F)cc1)OCc1cc(=O)n2nc(C3CCCCC3)sc2n1 | 0.01 µM [falling, full curve, poor fit] | 0.01 µM [falling, full curve, poor fit] |
| Fc1ccc(NC(=S)NCCc2ccccn2)cc1 |  | 22.4 µM [falling, partial curve, poor fit] |
| O=C(Nc1ccccc1O)c1cc(S(=O)(=O)N2CCOCC2)c(Cl)cc1Cl | 11.2 µM [rising, partial curve] | 1.78 µM [rising, full curve, poor fit] |
| O=C(NCCS(=O)(=O)N1CCN(c2ccccc2)CC1)C1CC(=O)N(c2ccc(F)cc2)C1 (stereo not drawn) |  | 0.0708 µM [rising, full curve] |
| COc1ccc(C2CC(c3cccs3)=NN2C(=O)CN2CCCCC2)cc1 (stereo not drawn) | 1.78 µM [rising, full curve] | 3.16 µM [rising, single point] |
| Cc1cc(C)nc(Sc2nc(C)nc3c2oc2ccccc23)n1 |  | 11.2 µM [falling, partial curve] |
| COc1ccc(N2CCN(c3ncnc4c3[nH]c3ccccc34)CC2)cc1 | 3.16 µM [rising, full curve] | 6.31 µM [rising, partial curve] |
| CCOC(=O)N1CCN(C(=O)c2cc(-c3ccc(OCC)cc3)nc3ccccc23)CC1 | 12.6 µM [rising, partial curve] | 35.5 µM [rising, single point] |
| CC(C)CN1CCN(Cc2cccn2-c2ccccn2)CC1CCO (stereo not drawn) |  | 35.5 µM [falling, partial curve, poor fit] |
| COc1ccc(CCNC(=O)c2ccc(C)s2)cc1OC | 5.01 µM [falling, single point] | 4.47 µM [falling, partial curve, poor fit] |
| Cc1cccc(CNS(=O)(=O)c2ccc(-c3cnc(C4CC4)o3)cc2)c1 |  | 35.5 µM [falling, single point] |
| COc1ccc(C(CC(=O)c2ccc(C)cc2)C(C#N)C#N)cc1OC (stereo not drawn) | 3.16 µM [falling, single point] | 35.5 µM [falling, single point] |
| Cc1cccc(C2C3=C(Nc4[nH]n(-c5ccccc5)c(=O)c42)c2ccccc2C3=O)c1 (stereo not drawn) | 11.2 µM [rising, partial curve] | 11.2 µM [rising, single point] |

Arranged by molecular weight (low to high): some entries from above.

| SMILES | AC50 [1] | AC50 [2] |
| --- | --- | --- |
| Cc1ccc(Nc2c(N)c(=O)oc3ccccc23)cc1 | 14.1 µM [rising, partial curve] |  |
| Fc1ccc(NC(=S)NCCc2ccccn2)cc1 |  | 22.4 µM [falling, partial curve, poor fit] |
| COc1ccc(CCNC(=O)c2ccc(C)s2)cc1OC | 5.01 µM [falling, single point] | 4.47 µM [falling, partial curve, poor fit] |

More results follow.

| SMILES | AC50 [1] | AC50 [2] |
| --- | --- | --- |
| Cc1nc2ccccc2n1CC(O)COC1CCCCC1 (stereo not drawn) | 35.5 µM [rising, single point] | 22.4 µM [rising, single point] |
| COc1ccc(NS(=O)(=O)c2ccc(NC(=S)NC(=O)/C=C/c3ccccc3)cc2)nn1 | 11.2 µM [rising, partial curve, poor fit] |  |
| Cc1ccc2nc(SC(C)C(=O)Nc3cccc([N+](=O)[O-])c3)[nH]c2c1 (stereo not drawn) | 31.6 µM [rising, single point] |  |
| CCCCNC(=O)CSc1nc2ccccc2nc1Cc1ccc(C)cc1 |  | 0.355 µM [rising, single point] |
| COc1ccc(-c2nnc(SCc3cc(=O)c4cc(C)cc(C)c4[nH]3)n2C)cc1 |  | 0.708 µM [rising, single point] |
| COc1cnc(-c2ccccn2)nc1Oc1ccccc1 | 0.794 µM [rising, full curve, poor fit] |  |
| Cc1ccc(CN2C(=O)/C(=C\c3ccc(C(=O)NCc4cccnc4)cc3)Oc3ccccc32)cc1 | 7.94 µM [rising, partial curve, poor fit] |  |
| CCOC(=O)c1c(-c2ccc(C)o2)csc1NC(=O)CSc1ncn[nH]1 |  | 22.4 µM [rising, partial curve, poor fit] |
| Cc1nonc1OCCNc1ccc([N+](=O)[O-])cc1[N+](=O)[O-] |  | 35.5 µM [falling, single point] |
| Cc1c(C(=O)NCc2cccnc2)oc2ccccc12 |  | 10 µM [rising, partial curve, poor fit] |
| C/C(=N/OCC(=O)NCCCCCCNC(=O)CO/N=C(/C)c1cccs1)c1cccs1 | 22.4 µM [rising, single point] | 12.6 µM [rising, single point] |
| COc1cccc(CNC(=O)c2ccc3nc(-c4ccc(F)cc4)c(-c4ccc(F)cc4)nc3c2)c1 |  | 0.0316 µM [falling, full curve, poor fit] |
| O=C(Nc1cccc(S(=O)(=O)N2CCCCC2)c1)c1ccc2ccccc2n1 | 25.1 µM [rising, single point] | 14.1 µM [rising, single point] |
| CN(C)C(=O)c1ccc(-c2ccc3ncnc(N(C)C)c3c2)cc1 | 0.447 µM [falling, full curve, poor fit] |  |
| Cc1nn2cc(-c3cccc(Cl)c3)cnc2c1Cl | 31.6 µM [rising, single point] | 35.5 µM [rising, single point] |
| O=C(NNC(=S)NC1CCCCC1)c1ccccc1O | 2.82 µM [rising, full curve] |  |
| O=C1CC(=C(c2ccccc2)c2ccccc2)C(=O)N1CCCCN1CCN(c2cccc(Cl)c2)CC1 | 22.4 µM [rising, single point] | 12.6 µM [rising, single point] |
